In PubChem BioAssay AID493014 (National Center for Advancing Translational Sciences (NCATS), 2011):
The other results are listed elsewhere or left out. These are further read-outs of the screen, such as a control signal, another cell line or another target. No call is given for them. Compounds called inactive in the main read-out are mostly missing here. Potencies come from curve fits of mixed quality, noted in brackets.

Test: qHTS Assay to Find Inhibitors of Chronic Active B-Cell Receptor Signaling
Settings: ABC-DLBCL IkBa-CBG/CBR reporter, luminescence ratio (green luciferase fused to IkBa over red control in TMD8 lymphoma cells), 4 h
In short: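 TMD8 ABC-DLBCL cells carrying doxycycline-inducible green luciferase fused to IkappaBalpha plus unfused red luciferase were exposed to compounds (up to 46 uM) for 4 hrs at 37C. Activity came from the overlap-corrected green/red luminescence ratio.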

[1] = measured here: CBR red luminescence, cell number

Structure (SMILES)	AC50 [1]	AC50 (measured here: IkBa-CBG green luminescence)
Cc1ccc2nc(SCC(=O)c3ccccc3)nc(=O)n2c1	2.31 µM [falling, full curve]	–
CC1(C)CN=c2s/c(=C\c3ccc(Cl)cc3)c(=O)n2C1	35.5 µM [falling, single point]	–
CNC(=O)NC(=S)NC(=O)c1ccccc1Cl	11.2 µM [falling, partial curve]	–
O=C(c1cccc(COc2cccc3ccccc23)c1)N1CCCC1	20.6 µM [falling, partial curve]	–
CCCc1cc(=O)oc2cc(OCC(=O)NC3CCN(Cc4ccccc4)CC3)ccc12	3.16 µM [falling, partial curve, poor fit]	–
CCOc1ccccc1Cn1c(=O)oc2ccc(C)cc21	14.6 µM [rising, partial curve, poor fit]	–
Cn1c(SCC(=O)NNC(=O)Nc2ccc(Cl)cc2)nnc1-c1ccccc1	0.447 µM [rising, full curve, poor fit]	–
Cc1ccc(NC(=O)c2cc(-c3cccs3)on2)cc1	10.3 µM [falling, partial curve, poor fit]	–
O=C(Nc1ccccc1Br)N1CCC(CN2CCCC2)CC1	10 µM [rising, partial curve]	–
OC1CCN(c2cc(-c3ccccc3)nc3cc(-c4ccc(F)cc4)nn23)CC1	1 µM [falling, partial curve, poor fit]	–
CCN(CC)CCN1c2ccccc2Sc2ccccc21	11.2 µM [falling, single point]	–
CN1C(=O)/C(=C/c2ccco2)SC1=Nc1cccc(C(=O)O)c1	11.2 µM [rising, single point]	–
Cc1cc([N+](=O)[O-])ccc1Nc1nc2ccccc2n2cnnc12	–	17.8 µM [falling, partial curve, poor fit]
CC(CC(=O)Nc1ccc(Cl)c(S(=O)(=O)N2CCOCC2)c1)c1ccccc1 (stereo not drawn)	0.58 µM [rising, full curve, poor fit]	–
Cc1ccc(-c2cc(NC(=O)c3ccccc3[N+](=O)[O-])n[nH]2)cc1	8.91 µM [falling, partial curve, poor fit]	–
CCOc1ccc(S(=O)(=O)Nc2ccc3c(c2)n(C)c(=O)n3C)cc1	15.8 µM [rising, single point]	–
C/C(=N\Nc1ccc(C)c(Cl)c1)c1ccncc1	10 µM [rising, partial curve, poor fit]	–
c1ccc(COC2CCCN(Cc3nc(-c4cccs4)no3)C2)nc1 (stereo not drawn)	14.1 µM [rising, single point]	–

Rewritten as comma-separated lines: entries from further up
Structure (SMILES),AC50 [1],AC50 (measured here: IkBa-CBG green luminescence)
Cc1ccc2nc(SCC(=O)c3ccccc3)nc(=O)n2c1,"2.31 µM [falling, full curve]",–
Cc1ccc(NC(=O)c2cc(-c3cccs3)on2)cc1,"10.3 µM [falling, partial curve, poor fit]",–
Cc1cc([N+](=O)[O-])ccc1Nc1nc2ccccc2n2cnnc12,–,"17.8 µM [falling, partial curve, poor fit]"
